From PubChem BioAssay AID651900 (Broad Institute, 2012)
The list shows a part of the results. Further columns of the screen follow, without active or inactive calls.

Test: cytotoxicity in NIH3T3 fibroblasts, dose response, cytotoxicity control, cell-based, plate reader, cherry-pick, two tests (AID 651900)
Conditions: test 2 concentration series, at 26 µM

| Compound | activity |
| --- | --- |
| CCOC(=O)c1c(N)sc(C(N)=O)c1C | -0.1% |
| CSc1ccc(S(=O)(=O)N2CCC(C(=O)Nc3cccnc3)CC2)cc1 | 3.17% |
| CC(=O)c1ccc(C(=O)N2CCCC(CCC(=O)N(C)CCc3ccccn3)C2)s1 (configuration not stated) | -9.73% |
| Nc1cc(C(=O)O)ccc1Nc1ccccc1 | -6.31% |
| Cc1nc2sc(C(c3ccc(Cl)cc3)N3CCN(c4ccccc4F)CC3)c(O)n2n1 (configuration not stated) | -4.2% |
| O=C(Nc1cccc(F)c1)C1CCCN(c2cnccn2)C1 (configuration not stated) | 8.11% |
| Cc1c(OC(C)C(=O)NCc2ccccn2)ccc2c3c(c(=O)oc12)CCC3 (configuration not stated) | -2.84% |
| Cc1cccc(C2c3[nH]c4ccccc4c3CCN2C(=O)CN2CCOC2=O)n1 (configuration not stated) | 2.96% |
| CC(=O)OCC(=O)[C@@]1(OC(C)=O)[C@@H](C)C[C@H]2[C@@H]3C[C@H](F)C4=CC(=O)C=C[C@]4(C)[C@@]3(F)[C@@H](O)C[C@@]21C | 6.27% |
| CCOc1ccc(C(=O)Nc2cc3c(cc2N2CCCC2)n(CC)c(=O)n3CC)cc1OCC | -13.7% |
| CC(Oc1ccc2ccc(=O)oc2c1)C(=O)N1CCOCC1 (configuration not stated) | -8.9% |
| O=C(CSc1nc2c(c(=O)n1-c1ccccc1)SCC2)N1CCN(c2ccccc2)CC1 | -4.99% |
| COc1ccc(NC2CCCN(C(=O)c3ccc(C(C)=O)s3)C2)cc1 (configuration not stated) | -0.782% |
| Cc1ccc(-c2nnc(N3CCN(C(=O)CSc4ncn[nH]4)CC3)c3ccccc23)cc1 | -0.687% |
| O=C(Nc1ncc2c(n1)CC(c1ccccc1)CC2=O)c1ccco1 (configuration not stated) | 2.71% |
| CCOC(=O)CNC(=O)c1sc2ncnc(N3CCc4ccccc4C3)c2c1C | 4.25% |
| Cc1nc2nc(SCC(=O)NCc3ccco3)nn2c(C)c1Cc1c(F)cccc1Cl | -1.14% |

In a second layout: entries from further up
Compound	activity
Cc1c(OC(C)C(=O)NCc2ccccn2)ccc2c3c(c(=O)oc12)CCC3 (configuration not stated)	-2.84%
O=C(CSc1nc2c(c(=O)n1-c1ccccc1)SCC2)N1CCN(c2ccccc2)CC1	-4.99%
